# Source: patent publication US11192889B2, “Tetrahydronaphthyridinepentanamide integrin antagonists” (The Rockefeller University, priority 2016, dated 2021)
# Amino acid sequences for entries named in this document (tags omitted). A change or cut given only in a name is not applied to a line headed by its entry.
# UniProt P05106: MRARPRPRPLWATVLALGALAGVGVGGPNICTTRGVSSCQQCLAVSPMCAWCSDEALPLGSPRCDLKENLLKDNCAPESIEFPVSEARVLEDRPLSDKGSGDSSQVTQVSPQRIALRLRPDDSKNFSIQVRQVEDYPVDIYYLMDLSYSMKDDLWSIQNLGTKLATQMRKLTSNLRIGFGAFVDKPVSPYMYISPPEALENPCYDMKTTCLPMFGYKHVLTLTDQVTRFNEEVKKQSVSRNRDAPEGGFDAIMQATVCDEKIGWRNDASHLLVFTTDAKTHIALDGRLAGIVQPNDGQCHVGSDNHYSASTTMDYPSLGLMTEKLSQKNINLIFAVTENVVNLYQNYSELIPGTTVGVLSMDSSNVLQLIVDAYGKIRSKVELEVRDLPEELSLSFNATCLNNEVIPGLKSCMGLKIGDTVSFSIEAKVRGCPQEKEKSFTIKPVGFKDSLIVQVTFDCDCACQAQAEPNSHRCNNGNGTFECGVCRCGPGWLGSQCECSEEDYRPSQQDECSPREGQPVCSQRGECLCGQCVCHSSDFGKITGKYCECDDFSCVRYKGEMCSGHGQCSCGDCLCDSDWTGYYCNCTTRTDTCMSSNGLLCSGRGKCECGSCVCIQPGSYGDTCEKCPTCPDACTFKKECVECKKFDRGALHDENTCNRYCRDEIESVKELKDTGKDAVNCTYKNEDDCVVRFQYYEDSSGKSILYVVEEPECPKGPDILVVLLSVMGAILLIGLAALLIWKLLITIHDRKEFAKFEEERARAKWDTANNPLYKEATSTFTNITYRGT
# UniProt P06756, whole entry: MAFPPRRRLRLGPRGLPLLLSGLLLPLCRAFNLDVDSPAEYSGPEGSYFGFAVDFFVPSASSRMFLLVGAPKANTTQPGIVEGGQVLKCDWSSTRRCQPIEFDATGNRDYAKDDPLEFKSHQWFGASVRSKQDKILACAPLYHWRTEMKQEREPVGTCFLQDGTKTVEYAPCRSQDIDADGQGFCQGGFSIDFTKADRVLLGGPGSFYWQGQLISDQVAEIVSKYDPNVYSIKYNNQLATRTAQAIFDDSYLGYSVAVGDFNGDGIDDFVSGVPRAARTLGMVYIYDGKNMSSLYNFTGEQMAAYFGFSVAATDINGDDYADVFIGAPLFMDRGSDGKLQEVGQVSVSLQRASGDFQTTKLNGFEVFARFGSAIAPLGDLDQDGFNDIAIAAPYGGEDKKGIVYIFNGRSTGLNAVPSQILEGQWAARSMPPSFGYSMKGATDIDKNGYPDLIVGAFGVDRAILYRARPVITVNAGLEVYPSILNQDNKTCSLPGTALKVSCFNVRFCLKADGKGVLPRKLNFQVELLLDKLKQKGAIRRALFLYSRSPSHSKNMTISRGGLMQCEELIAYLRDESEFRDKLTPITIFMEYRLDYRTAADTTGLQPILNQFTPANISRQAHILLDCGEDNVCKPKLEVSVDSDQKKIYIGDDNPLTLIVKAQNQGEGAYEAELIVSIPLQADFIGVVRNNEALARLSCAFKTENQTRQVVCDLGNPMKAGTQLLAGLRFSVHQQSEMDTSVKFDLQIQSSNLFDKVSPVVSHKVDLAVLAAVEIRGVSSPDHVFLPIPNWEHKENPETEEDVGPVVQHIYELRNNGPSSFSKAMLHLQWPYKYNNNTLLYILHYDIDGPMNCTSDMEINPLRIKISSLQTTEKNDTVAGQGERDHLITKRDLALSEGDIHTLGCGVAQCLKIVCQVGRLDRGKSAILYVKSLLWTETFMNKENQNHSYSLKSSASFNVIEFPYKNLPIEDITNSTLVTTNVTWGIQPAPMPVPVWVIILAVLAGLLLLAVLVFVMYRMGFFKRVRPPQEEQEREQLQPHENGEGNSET
# Values joined by “and” are separate entries in the source; they are usually repeats but may differ in a detail not shown here. Equal entries are not always repeated. The name of at least one read-out is uncertain.
# Molecular target: HEK-293-αVβ3 cells (Homo sapiens, UniProt P05106+P06756)
# Assay: AP5 Binding Assay
# Type: cell-based
# Conditions: @10 μM; relative to AP5 expression induced by cilengitide
# Text: HEK-293 Cells Expressing αVβ3. HEK-293 cells were transfected using lipofectamine 2000 (Invitrogen #11668030) with the cDNA for αV using the pEF1/V5-His A vector and the cDNA for β3 using the vector pcDNA3.1. Cells expressing αVβ3 were identified by their reaction with murine monoclonal antibodies (mAbs) LM609 and 7E3, and stable cell lines were established by repetitive sorting using LM609. […] HEK-293-αVβ3 cells for assays are counted in an automated cell counter (ADVIA 120) and adjusted to values appropriate for each assay.
# AP5 Binding Assay. HEK-293-αVβ3 cells are harvested using 0.05% trypsin 0.5 mM EDTA, washed with HBMT once, and resuspended in HBMT containing 1 mM Mg2+ and 2 mM Ca2+. The cells are counted and adjusted to 0.5×10^6 cells per sample. The compound to be tested and fluorescently labeled mAb AP5 (either Alexa 488 or Alexa 674; 10 μg/mL) are added and incubated for 30 minutes at 37° C. The cells are then washed and analyzed by flow cytometry (BD FACSCalibur) at the appropriate wavelength for detecting the AP5 fluorophore. In each assay, cilengitide (1 μM) and 10 mM EDTA are included as positive controls and untreated cells are used as the negative control. The concentration of the test compound required to induce the expression of 50% of the AP5 expression induced by cilengitide is calculated and defined as the EC50. The EC50 for cilengitide was determined based on the expression induced by EDTA.
row,SMILES,AP5 expression induced at the highest concentration
1,"O=C(CCCCc1ccc2c(n1)NCCC2)NCC[C@@H](NC(=O)OCc1ccccc1)C(=O)O [Example 4, (2R)-2-(Benzyloxycarbonylamino)-4-[5-(5,6,7,8-tetrahydro-1,8-naphthyridin-2-yl)pentanoylamino]butanoic acid]",8%
2,"CC(C)COC(=O)NC(CCNC(=O)CCCCc1ccc2c(n1)NCCC2)C(=O)O (stereo not shown) [Example 38, 2-(Isobutoxycarbonylamino)-4-[5-(5,6,7,8-tetrahydro-1,8-naphthyridin-2-yl)pentanoylamino]butanoic acid]",14% and 19%
3,O=C(CCCCc1ccc2c(n1)NCCC2)NCCC(NS(=O)(=O)c1cccnc1)C(=O)O (stereo not shown) [Example 44],16%
4,"O=C(CCCCc1ccc2c(n1)NCCC2)NCC[C@H](NC(=O)OCc1ccccc1)C(=O)O [Example 3, (2S)-2-(Benzyloxycarbonylamino)-4-[5-(5,6,7,8-tetrahydro-1,8-naphthyridin-2-yl)pentanoylamino]butanoic acid]",23% and 24%
